Source: PubChem BioAssay AID540276 (National Center for Advancing Translational Sciences (NCATS), 2011)
The whole screen tested about 300,000 compounds, of which about 5,400 (1.8%) were called active. Inconclusive results, whose numbers are uncertain, are shown with a selection of clear calls. The call rests on the fitted dose curve; tested in HEK293 cells. Potencies beside an inconclusive call are fits to weak or partial responses and may not hold up.

Assay: qHTS for inhibitors of binding or entry into cells for Marburg Virus
Details: Marburg virus pseudotyped entry inhibition, cell reporter; series mostly up to 37.8 µM
Potency means the concentration at half of the fitted maximal effect.

SMILES | Potency
CC1CCN(C(=O)CNC(=O)c2cccc(OC(F)F)c2)CC1 | inactive
Cc1cc(N)c(-n2cc3c(=O)n(C)c(=O)n(C)c3c2)cc1C | inactive
COc1cccc(Nc2nc(N)nc(CCl)n2)c1 | inconclusive: 1.12 µM [inhibitor, partial curve, poor fit]
Cc1ccc(/C=N/NC(=S)N2CCOCC2)cc1 | inactive
Cc1ccc(-n2c(C)csc2=N)cc1 | inconclusive: 32.6 µM [inhibitor, single point]
CCSc1ncc(Cl)c(C(=O)Nc2cccc(Cl)c2)n1 | inconclusive: 3.16 µM [activator, partial curve, poor fit]
CC(C)C(=O)Nc1ccc(Br)cc1Cl | inactive
Cc1cc(C)n2nc(Cc3ccccc3)nc2n1 | inconclusive: 0.282 µM [inhibitor, full curve, poor fit]
Cc1ccccc1Nc1c(-c2ccc(N3CCOCC3)cc2)nc2ccc(Br)cn12 | inactive
Cc1ccc(-c2csc3ncnc(N4CCN(c5ccccc5O)CC4)c23)cc1 | inconclusive: 35.5 µM [inhibitor, single point]
Cc1nn(-c2nc3ccccc3s2)c(N)c1-c1ccc(Cl)cc1 | inactive
CC(=O)Nc1ncc(Cc2cccc(Cl)c2Cl)s1 | inactive
CC(C)(C)Nc1nc(SCC(=O)Nc2ccccc2Cl)nc(N2CCOCC2)n1 | inconclusive: 35.5 µM [inhibitor, single point]
O=S(NCc1ccco1)C12CC3CC(CC(C3)C1)C2 (stereo unspecified) | inactive
Clc1ccc(OCc2nc(-c3ccncc3)no2)c(Br)c1 | inconclusive: 1.03 µM [activator, full curve, poor fit]
COc1cccc(Cn2cc(C(=O)c3ccc(Cl)cc3)c(=O)c3ccccc32)c1 | inconclusive: 0.631 µM [inhibitor, full curve, poor fit]
COc1ccc2c(c1)c1nc3ccccc3nc1n2Cc1ccc(OC(C)C)c(OC)c1 | inconclusive: 0.794 µM [inhibitor, full curve, poor fit]
CCOc1ccc(NC(=O)CN(C)C(=O)c2c(C)noc2C)cc1OCC | inconclusive: 3.55 µM [inhibitor, single point]
Cc1cccn2c(=O)c(/C=C(\C#N)C(=O)NCc3ccco3)c(N3CCOCC3)nc12 | inconclusive: 1.26 µM [inhibitor, full curve, poor fit]
O=C(Nc1ccncc1)c1ccc(Cl)c(S(=O)(=O)N2CCc3ccccc32)c1 | inconclusive: 11.2 µM [inhibitor, partial curve, poor fit]
COc1cc(/C=C(/C)[N+](=O)[O-])ccc1OCc1ccccc1Cl | active: 6.51 µM
CCCC(CCC)=NNC(=O)c1ccccc1F | inconclusive: 6.31 µM [inhibitor, single point]
CCCc1ccc2oc(C(=O)N(Cc3ccncc3)CC3CCCO3)c(C)c2c1 (stereo unspecified) | inconclusive: 14.1 µM [inhibitor, single point]
O=C(O)/C=C/c1ccc(OCc2cccc(F)c2)cc1 | inconclusive: 3.98 µM [inhibitor, single point]

An excerpt from above in order of molecular weight, ascending.
SMILES | Potency
Cc1ccc(/C=N/NC(=S)N2CCOCC2)cc1 | inactive
CCSc1ncc(Cl)c(C(=O)Nc2cccc(Cl)c2)n1 | inconclusive: 3.16 µM [activator, partial curve, poor fit]
COc1cccc(Cn2cc(C(=O)c3ccc(Cl)cc3)c(=O)c3ccccc32)c1 | inconclusive: 0.631 µM [inhibitor, full curve, poor fit]

More compounds

SMILES | Potency
COc1ccc2[nH]cc(CCN=C(NC(=O)c3ccccc3OC)Nc3nc(C)cc(C)n3)c2c1 | inconclusive: 10 µM [inhibitor, partial curve, poor fit]
COc1cccc(CC(=O)N2CCC(n3nccc3NC(=O)C3CCOC3)CC2)c1 (stereo unspecified) | inconclusive: 5.62 µM [activator, partial curve]
CCOc1ccc(-n2c(C)nc(O)c2N=Nc2ccccc2)cc1 | inconclusive: 3.98 µM [activator, single point]
COCCOc1ccc(C(F)(F)F)cc1NC(=O)c1ccc(C)cc1 | inconclusive: 31.6 µM [activator, single point]
COc1nc(-c2ccccc2)cc(-c2ccc(OC)c(OC)c2)n1 | inconclusive: 1.16 µM [activator, single point]
N#C/C(=C\c1c(N2CCN(c3ccccc3)CC2)nc2ccccn2c1=O)S(=O)(=O)c1ccccc1 | inactive
Cc1ccc(S(=O)(=O)Oc2ccc(C)cc2/C=N/N=C2\NC(=O)C(C)S2)cc1 (stereo unspecified) | inconclusive: 6.31 µM [inhibitor, single point]
COc1ccc(-n2c(=O)c3c4c(sc3n(CC(N)=O)c2=O)CCCCC4)cc1 | inconclusive: 0.631 µM [inhibitor, full curve, poor fit]
CS(=O)(=O)N1CCN(c2ccccc2NC(=O)c2cc(Br)ccc2Cl)CC1 | inactive
O=C(Cn1cnc2ccccc2c1=O)OCC(=O)c1ccc2c(c1)OCCO2 | inactive
CS(=O)(=O)N1CCC(Oc2ccccc2C(=O)NC2CCOC2)CC1 (stereo unspecified) | inactive
Cc1cc(C)c(OCC(=O)OCC(=O)N(C)C2CCS(=O)(=O)C2)c(C)c1 (stereo unspecified) | inconclusive: 35.5 µM [activator, single point]
Cc1ccc(C(=O)NC2CC3CCCC(C2)N3C(=S)NCc2ccco2)cc1 (stereo unspecified) | inactive
CC(C)CN(C(=O)CSc1nnc2c(Cl)cc(C(F)(F)F)cn12)C1CCS(=O)(=O)C1 (stereo unspecified) | inconclusive: 3.98 µM [inhibitor, single point]
CN(C)/C=C/C(=O)c1cnc(-c2ccccc2)s1 | inconclusive: 25.1 µM [activator, partial curve, poor fit]
COC(=O)c1ccc(CSC(=N)N)o1 | inconclusive: 11.2 µM [inhibitor, partial curve, poor fit]
COc1ccc(-c2csc(NC(=O)Cc3cc(OC)c(OC)c(OC)c3)n2)cc1OC | inconclusive: 35.5 µM [inhibitor, single point]
CCc1ccc(-c2nc(SCC(=O)N3CCOCC3)n[nH]2)cc1 | inactive
Cc1cccn2c(=O)c3cc(C(=O)NCCc4ccccc4)c(=N)n(Cc4ccco4)c3nc12 | inconclusive: 6.31 µM [inhibitor, partial curve, poor fit]
O=C(NCCSc1c[nH]c2ccccc12)c1ccccc1Cl | inactive
COc1cccc(CNS(=O)(=O)c2ccc3c(c2)CC(C)N3C(=O)C2CC2)c1 (stereo unspecified) | inactive
CCCOc1ccccc1-n1sc2c(c1=S)-c1cc(OC)cc3c1N(C(=O)C3=O)C2(C)C | inconclusive: 12.6 µM [inhibitor, partial curve, poor fit]
COc1ccc(/C=N/NC(=O)Nc2cccc3nsnc23)cc1OC | inactive
CCN(CC)C(=O)[C@]1(c2ccccc2)C[C@@H]1CN | inactive

SMILES | Potency
Cc1cnc(C(=O)OCC(=O)NC23CC4CC(CC(C4)C2)C3)cn1 | inconclusive: 2.06 µM [inhibitor, partial curve, poor fit]
Cc1ccc2c(CC(=O)OCC(=O)Nc3ccc(Cl)cn3)coc2c1 | inconclusive: 0.398 µM [inhibitor, partial curve, poor fit]
CCn1ncc(C2=NOC(C(=O)Nc3ccc(C)cc3)C2)c1C (stereo unspecified) | inactive
O=[N+]([O-])c1ccc(O)c(/C=N/Nc2ccccc2Cl)c1 | inconclusive: 35.5 µM [inhibitor, single point]
NC(=Nc1ccccc1)N(c1ccccc1)c1ccccc1 | inconclusive: 8.91 µM [inhibitor, partial curve]
O=C(CN1CCOCC1)N/N=C/C=C/c1ccccc1 | inactive
O=C(Nc1cccc([N+](=O)[O-])c1)C1CC(=O)N(Cc2ccccc2)C1 (stereo unspecified) | inconclusive: 35.5 µM [activator, single point]
c1ccc(-c2cc3n(c2)CCc2ccccc2-3)cc1 | inactive
O/N=C/c1ccnc(SCc2ccccc2)n1 | inconclusive: 0.891 µM [activator, single point]
CNC(=O)C(C)NS(=O)(=O)c1ccc(F)cc1 (stereo unspecified) | inconclusive: 6.51 µM [activator, single point]
O=S(Cc1cc(Oc2ccccc2)nc(-c2ccccc2)n1)c1ccccc1 (stereo unspecified) | inconclusive: 35.5 µM [inhibitor, single point]
COc1ccc2nc3c(cc2c1)c(NC(=O)C1CCCO1)nn3CC(C)C (stereo unspecified) | inconclusive: 6.31 µM [activator, full curve, poor fit]
O=C(C1=NOC(CNc2ncc(C(F)(F)F)cc2Cl)C1)N1CCOCC1 (stereo unspecified) | inconclusive: 3.16 µM [activator, partial curve, poor fit]
O=C(CC1C(=O)NCCN1C(=O)Nc1ccc(Cl)cc1)Nc1ccc(F)cc1 (stereo unspecified) | inconclusive: 35.5 µM [inhibitor, single point]
N#Cc1ccc(CN2C(=O)NC3(CCCCCC3)C2=O)cc1 | inactive
Cn1ccnc1SCC(=O)c1ccc([N+](=O)[O-])cc1 | inconclusive: 6.31 µM [activator, single point]
CCN(CC)CCn1c2ccccc2c2cnc(N)c(C#N)c21 | active: 11.2 µM
COc1ccc(NC(=O)CN2CCN(C3c4ccccc4-c4ccccc43)CC2)cc1 | inconclusive: 23.1 µM [inhibitor, single point]
COc1cccc(NC(=O)Cn2c(=O)n(-c3ccccc3)c(=O)c3oc4ccccc4c32)c1 | inconclusive: 20 µM [inhibitor, single point]
Cc1ccc(NC(=O)CCc2c[nH]c3ccccc23)nc1 | inconclusive: 1.12 µM [inhibitor, full curve, poor fit]
O=C(OCC(=O)N1CCN(c2ccccc2)CC1)c1ccco1 | inconclusive: 1.26 µM [inhibitor, single point]
CCOC(=O)c1c(-c2ccccc2)csc1NC(=O)c1ccc(N2C(=O)CCC2=O)cc1 | inactive
CN1CC=C2C(C#N)=C(N)C(C#N)(C#N)C(c3ccsc3)C2C1 (stereo unspecified) | inconclusive: 1 µM [inhibitor, full curve, poor fit]
